No constants are given. Whether binding was seen depends on the method and setting. Some binding calls cover weakened binding; strength is not graded here. Tags and fused reporters may be left off the sequences shown.
B1: 3SM5-his tag (VH domain of the heavy chain of antibody CH65, with myc tag and his tag) (protein)
VH: MEVQLVQSGAEVKKPGASVKVSCKASGYTFTDYHINWVRQAPGQGLEWMGWIHPNSGDTNYAQKFQGWVTMTRDTAISTAYMEVNGLKSDDTAVYYCARGGLEPRSVDYYYYGMDVWGQGTTVTVSSEQKLISEEDLEHHHHHH
B2: 238D4-his tag (VHH)
VHH: EVQLMESGGGLVQAGGSLRLSCAASGRTFNNYAMGWFRRAPGKEREFVAAITRSGVRSGVSAIYGDSVKDRFTISRDNAKNTLYLQMNSLKPEDTAVYTCAASAIGSGALRRFEYDYSGQGTQVTVSS

The chains behind the UniProt entries cited, without tags or fusion partners.
UniProt P61073: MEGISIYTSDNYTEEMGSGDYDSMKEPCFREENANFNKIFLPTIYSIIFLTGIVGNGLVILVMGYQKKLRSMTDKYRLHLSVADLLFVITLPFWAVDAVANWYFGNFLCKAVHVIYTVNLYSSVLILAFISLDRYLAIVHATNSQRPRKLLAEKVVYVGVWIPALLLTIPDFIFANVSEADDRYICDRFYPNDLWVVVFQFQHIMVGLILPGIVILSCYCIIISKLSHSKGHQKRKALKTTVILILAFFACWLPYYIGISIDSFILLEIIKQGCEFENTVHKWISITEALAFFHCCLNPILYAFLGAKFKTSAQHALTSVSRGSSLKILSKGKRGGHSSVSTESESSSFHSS

Key:
[1] = target: human CXCR4 receptor expressed transiently in HEK293 cells (human) (UniProt P61073); assay: flow cytometry on HEK293 cells transfected with human CXCR4
[2] = target: human CXCR4 receptor expressed transiently in HEK293 cells (human) (UniProt P61073); assay: flow cytometry on HEK293 cells transfected with CXCR4
[3] = target: CXCR4 fused to the SNAP tag, labelled with terbium, expressed in HEK293 cells (human) (UniProt P61073); assay: FRET displacement of SDF1-d2 (12 nM) from Tb-labelled SNAP-CXCR4 on HEK293 cells
[4] = target: human CXCR4 receptor expressed transiently in HEK293 cells (human) (UniProt P61073); assay: flow cytometry on HEK293 cells transfected with CXCR4, VHH at 1 µM, anti-His-APC

Binder	binding [1]	binding [2]	binding [3]	binding [4]
B1	binds	binds	binds	–
B2	–	binds	–	binds

Reference: patent publication US20200185064A1
